These are yes or no findings as the source states them, for the method shown. Some binding calls cover weakened binding; strength is not graded here.
Molecular target: T1, SMCR8 (full-length) (human, UniProt Q8TEV9 1-937)
T1 construct: SMCR8, human, open reading frame amplified from a human cDNA library; residues 1-937; also called SMCR8 Fl; source: Sf-9 insect cells, co-expressed with C9orf72, purified (Strep-Tactin, size-exclusion chromatography)
T1 sequence (looked up): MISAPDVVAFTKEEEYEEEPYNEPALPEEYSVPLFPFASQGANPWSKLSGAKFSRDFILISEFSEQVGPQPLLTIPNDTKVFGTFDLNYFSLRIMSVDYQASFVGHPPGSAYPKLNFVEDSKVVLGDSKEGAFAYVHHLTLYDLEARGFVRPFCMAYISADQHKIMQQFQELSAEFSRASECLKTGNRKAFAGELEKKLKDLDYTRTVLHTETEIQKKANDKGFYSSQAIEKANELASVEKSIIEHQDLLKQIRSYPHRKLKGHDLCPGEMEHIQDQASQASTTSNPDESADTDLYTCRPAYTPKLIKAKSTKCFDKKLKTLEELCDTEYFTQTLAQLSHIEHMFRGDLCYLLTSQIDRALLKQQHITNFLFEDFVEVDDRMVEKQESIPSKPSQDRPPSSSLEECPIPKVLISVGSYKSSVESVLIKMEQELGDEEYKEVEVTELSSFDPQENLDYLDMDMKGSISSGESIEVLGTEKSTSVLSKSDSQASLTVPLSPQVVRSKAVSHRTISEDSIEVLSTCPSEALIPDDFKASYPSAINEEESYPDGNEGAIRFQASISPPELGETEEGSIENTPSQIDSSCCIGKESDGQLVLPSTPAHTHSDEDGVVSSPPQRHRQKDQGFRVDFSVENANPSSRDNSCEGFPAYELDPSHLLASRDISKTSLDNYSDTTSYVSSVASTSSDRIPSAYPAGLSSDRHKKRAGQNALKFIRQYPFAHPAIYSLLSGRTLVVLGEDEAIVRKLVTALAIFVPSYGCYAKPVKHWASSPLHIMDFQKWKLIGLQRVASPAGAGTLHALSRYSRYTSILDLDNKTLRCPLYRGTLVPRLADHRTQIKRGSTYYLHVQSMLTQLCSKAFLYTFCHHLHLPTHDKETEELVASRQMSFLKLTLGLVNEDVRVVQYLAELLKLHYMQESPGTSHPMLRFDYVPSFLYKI
Test: SEC; C9orf72 and SMCR8 co-expressed in Sf-9 cells, purified together on Strep-Tactin beads and Superose 6 10/300 GL

binding: binds
B1: C9orf72 (full-length) (protein, UniProt Q96LT7 1-481)
chain: MSTLCPPPSPAVAKTEIALSGKSPLLAATFAYWDNILGPRVRHIWAPKTEQVLLSDGEITFLANHTLNGEILRNAESGAIDVKFFVLSEKGVIIVSLIFDGNWNGDRSTYGLSIILPQTELSFYLPLHRVCVDRLTHIIRKGRIWMHKERQENVQKIILEGTERMEDQGQSIIPMLTGEVIPVMELLSSMKSHSVPEEIDIADTVLNDDDIGDSCHEGFLLNAISSHLQTCGCSVVVGSSAEKVNKIVRTLCLFLTPAERKCSRLCEAESSFKYESGLFVQGLLKDSTGSFVLPFRQVMYAPYPTTHIDVDVNTVKQMPPCHEHIYNQRRYMRSELTAFWRATSEEDMAQDTIIYTDESFTPDLNIFQDVLHRDTLVKAFLDQVFQLKPGLSLRSTFLAQFLLVLHRKALTLIKYIEDDTQKGKKPFKSLRNLKIDLDLTAEGDLNIIMALAEKIKPGLHSFIFGRPFYTSVQERDVLMTF

From article PMC8336837, “Structure of the human C9orf72-SMCR8 complex reveals a multivalent protein interaction architecture” (PLoS Biology, 2021)
